According to patent US20220332835A1 (SHANGHAITECH UNIVERSITY, published 2022):

B1: abN48-IgG1 (antibody, V domains shown)
VH: QVQLVQSGAEVKKPGSSVKVSCKASGGTLSSYAISWVRQAPGQGPEWMGWINPNSGGTNYAQKFQGRVTMTRDTSISTAYMELSRLRPDDTAVYYCASGYCSSTSCYDYWGQGTLVTVSS
VL: QAVLTQPSSLSASPGASVSLTCTLRSGINVGAYRIYWYQQKPGSPPQFLLRYKSDSDKQQGSGVPSRFSGSRDASANAGILLISGLRSEDEADYYCAIWHSSAWVFGGGTQLTVLG
notes: also called full-length abN48
B2: abN48-2-IgG1 (antibody, V domains shown)
VH: B1 VH with S103R, S105R
VL: B1 VL
notes: Full-length human IgG1, lambda light chain; also called ab48-2-IgG1; abN48-2-IgG2 (as misprinted)

How the values were obtained:
[1] = target: mcCXCR2-mCherry (macaque monkey); test: FACS on transfected U2OS cells
hCXCR2-K16A = test: flow cytometry, U2OS cells expressing the hCXCR2-mCherry point mutant, Alexa Fluor 488 secondary antibody

| Binder | binding [1] | binding (hCXCR2-K16A) |
| --- | --- | --- |
| B1 | binds | binds |
| B2 | binds |  |

Residue numbers refer to the chain shown, from its start. These are yes or no findings as the source states them, for the method shown. Binding can be weak; no strength is given.
